These are yes or no findings as the source states them, for the method shown. A result given as binding can be weak or reduced; the word gives no strength.
What was measured:
[1] = target: sarco(endo)plasmic reticulum Ca^2+-ATPase SERCA1a (rabbit (Oryctolagus cuniculus)); experiment: oriented-sample solid-state NMR (2D [15N-1H] SE-SAMPI4); SERCA and 15N-labelled PLN or pPLN co-reconstituted in aligned DMPC/POPC/PE-DTPA/DHPC bicelles (q = 4), lipid-to-complex 2000:1, Yb^3+ doped; 20 mM HEPES, 100 mM KCl, 5 mM MgCl2, 2 mM DTT, 2.5% glycerol, pH 7.0, 5 mM CaCl2 (E1 state); 25°C; both purified
[2] = target: sarco(endo)plasmic reticulum Ca^2+-ATPase SERCA1a (rabbit (Oryctolagus cuniculus)); experiment: oriented-sample solid-state NMR (2D [15N-1H] SE-SAMPI4); SERCA and 15N-labelled PLN or pPLN co-reconstituted in aligned DMPC/POPC/PE-DTPA/DHPC bicelles (q = 4), lipid-to-complex 2000:1, Yb^3+ doped; 20 mM HEPES, 100 mM KCl, 5 mM MgCl2, 2 mM DTT, 2.5% glycerol, pH 7.0, 4 mM EGTA (E2 state, Ca^2+-free); 25°C; both purified

Row | Binder | binding [1] | binding [2]
1 | PLN^AFA, cysteine-null monomeric mutant of phospholamban (Cys36Ala, Cys41Phe, Cys46Ala) (protein, UniProt P61015 1-52) MEKVQYLTRSAIRRASTIEMPQQARQNLQNLFINFALILIFLLLIAIIVMLL | binds | binds
2 | pSer16-PLN, PLN^AFA phosphorylated at Ser16 by protein kinase A (protein, UniProt P61015 1-52, phosphoserine at 16) MEKVQYLTRSAIRRASTIEMPQQARQNLQNLFINFALILIFLLLIAIIVMLL | binds | binds
